Results: patent publication US20110280809A1
Results are given in words; binding and its absence hold for the method and conditions named. In cells and extracts the contact can be indirect. Some results given as binding are weak or reduced against the parent protein; the word gives no strength.

Chains of the proteins cited; added tags and fusions are not shown. Residues count along the entry.
UniProt P11021, residues 19-654: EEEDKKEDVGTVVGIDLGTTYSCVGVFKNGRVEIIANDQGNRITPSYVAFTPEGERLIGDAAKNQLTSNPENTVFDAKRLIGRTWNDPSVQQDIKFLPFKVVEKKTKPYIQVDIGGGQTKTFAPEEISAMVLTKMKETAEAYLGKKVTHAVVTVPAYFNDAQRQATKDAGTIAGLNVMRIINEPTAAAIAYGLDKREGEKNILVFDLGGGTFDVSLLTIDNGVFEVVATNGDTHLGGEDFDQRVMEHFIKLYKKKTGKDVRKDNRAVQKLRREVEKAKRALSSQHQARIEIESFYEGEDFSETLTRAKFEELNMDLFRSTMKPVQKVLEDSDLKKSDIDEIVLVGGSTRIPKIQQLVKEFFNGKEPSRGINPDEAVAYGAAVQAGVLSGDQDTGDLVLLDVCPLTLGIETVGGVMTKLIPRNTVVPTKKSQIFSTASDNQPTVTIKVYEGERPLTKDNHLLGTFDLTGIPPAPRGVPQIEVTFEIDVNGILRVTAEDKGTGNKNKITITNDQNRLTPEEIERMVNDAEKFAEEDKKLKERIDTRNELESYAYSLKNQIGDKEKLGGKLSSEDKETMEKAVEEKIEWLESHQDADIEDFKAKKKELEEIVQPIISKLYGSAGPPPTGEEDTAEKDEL

Tests used:
[1] = molecular target: Hspa5 (endogenous protein of Jurkat cells) (human) (UniProt P11021); experiment: co-immunoprecipitation from DSP-crosslinked Jurkat cells (referred back to)
[2] = molecular target: Hspa5 (endogenous protein of Jurkat cells) (human) (UniProt P11021); experiment: co-immunoprecipitation with anti-Pdia4 antibody from DSP-crosslinked Jurkat cells, Western blot with anti-Hspa5
[3] = molecular target: Hspa5 (endogenous protein of Jurkat cells) (human) (UniProt P11021); experiment: co-immunoprecipitation with anti-Pdia4 antibody from DSP-crosslinked Jurkat cells, Western blot with anti-Hspa5 or anti-Pdia4

Measured: binding

B1: Pdia4 (endogenous protein of Jurkat cells) (enzyme, human, UniProt P13667 21-645, looked up)
chain: VAGAEGPDEDSSNRENAIEDEEEEEEEDDDEEEDDLEVKEENGVLVLNDANFDNFVADKDTVLLEFYAPWCGHCKQFAPEYEKIANILKDKDPPIPVAKIDATSASVLASRFDVSGYPTIKILKKGQAVDYEGSRTQEEIVAKVREVSQPDWTPPPEVTLVLTKENFDEVVNDADIILVEFYAPWCGHCKKLAPEYEKAAKELSKRSPPIPLAKVDATAETDLAKRFDVSGYPTLKIFRKGRPYDYNGPREKYGIVDYMIEQSGPPSKEILTLKQVQEFLKDGDDVIIIGVFKGESDPAYQQYQDAANNLREDYKFHHTFSTEIAKFLKVSQGQLVVMQPEKFQSKYEPRSHMMDVQGSTQDSAIKDFVLKYALPLVGHRKVSNDAKRYTRRPLVVVYYSVDFSFDYRAATQFWRSKVLEVAKDFPEYTFAIADEEDYAGEVKDLGLSESGEDVNAAILDESGKKFAMEPEEFDSDTLREFVTAFKKGKLKPVIKSQPVPKNNKGPVKVVVGKTFDSIVMDPKKDVLIEFYAPWCGHCKQLEPVYNSLAKKYKGQKGLVIAKMDATANDVPSDRYKVEGFPTIYFAPSGDKKNPVKFEGGDRDLEHLSKFIEEHATKLSRTKEEL
binds: all assays above
